About 310 (0.097%) of roughly 320,000 compounds were called active. The inconclusive results got no clear call from the source; some entries with a clear call stand among them for comparison.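 The calls were made as follows: active = mean replicate activation of at least 60% and every replicate at or above 60%; inconclusive = mean or all-replicate condition met, but not both; inactive = mean below 60% and not all replicates reaching 60%.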
test: enhancers of HDL lipid transfer via mSR-BI – ldlA[mSR-BI] CHO cells, DiI fluorescence, primary screen (AID 504775); conditions: DiI-HDL uptake fluorescence, 3 h, at 12.5 µM, stronger effect = higher value, 100 = double the neutral-control signal;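 also: 0% = median plate neutral-control signal and 100% = twice that signal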
Summary of the method: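 System: CHO ldlA[mSR-BI] cells / Medium: HEPES-buffered (25 mM, pH 7.4) F12 plus 0.5% BSA / Probe or stimulus: labelled HDL, 10 µg/mL / Doses: single compound concentration, delivered by pin transfer / Schedule: 3 h, 37 °C / Measured by: DiI fluorescence, bottom read / Measure: cell-associated DiI fluorescence as measure of HDL uptake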

Structure (SMILES)	activation
Cc1ccccc1C(=O)NC1CCN(Cc2nnnn2Cc2ccccc2)CC1	inconclusive: 198%
CCOC(=O)N1CCN(C(=O)c2sc3nc(-c4ccc(F)cc4)cn3c2C)CC1	inactive: 1.05%
Cc1ccc2nc(NC(=O)C3CCN(S(=O)(=O)c4cc([N+](=O)[O-])ccc4Cl)CC3)sc2c1	inactive: -57.4%
Cc1c(C(=O)N2CCC(C(N)=O)CC2)sc(N)c1C#N	inconclusive: 61.1%
Cc1ccc(N2CCN(C(=S)c3ccc(-c4ccccc4[N+](=O)[O-])o3)CC2)cc1	inconclusive: 243%
CCCCCC(=O)NC(NC(=S)Nc1ccc(S(N)(=O)=O)cc1)C(Cl)(Cl)Cl (centres undefined)	inconclusive: 159%
COC(=O)CCCC(=O)Nc1c(F)c(F)c(F)c(F)c1F	inconclusive: 82.7%
CCCC(O)(c1ccc(Br)cc1)C(CN1CCOCC1)c1ccc(Cl)cc1 (centres undefined)	inconclusive: 350%
Cn1cc(CN2CCC(CO)CC2)c(-c2ccc(Oc3ccccc3)cc2)n1	inconclusive: 94.1%
CC(=O)NCCC(=O)N1CCCC(N2CCN(c3cccc(Cl)c3)CC2)C1 (centres undefined)	inconclusive: 120%
N/C(=N\N=C\c1ccco1)SC1CC(=O)N(c2ccc(C(=O)O)cc2)C1=O (centres undefined)	active: 60.1%
O=C(NC1=NCCS1)C1Cc2ccccc2CN1C(=O)c1ccccc1 (centres undefined)	inconclusive: 65%
CC(C)(C)c1cc(C(=O)N/N=C/c2ccccn2)n[nH]1	active: 320%
NC(=O)c1ncn([C@@H]2O[C@H](CNCc3cccc4c3sc3ccccc34)[C@@H](O)[C@H]2O)n1	inconclusive: 197%
COc1ccc(/C=C(/C#N)C(=O)Nc2ccc(C)cc2C)cc1C(=O)O	active: 65.5%
COc1cc(OC)c(C(=O)OCC(=O)Nc2c(C)n(C)n(-c3ccccc3)c2=O)cc1OC	inconclusive: 188%
CC(C)c1ccc(CNc2nnnn2C)cc1	inconclusive: 130%
Cc1cccc(SCC(=O)Nc2ccccc2[N+](=O)[O-])c1	inactive: -10.3%
Cn1c(SCC(=O)N2CCN(c3cccc(Cl)c3)CC2)nnc1-c1ccncc1	inactive: -15%
Cc1ccc(Nc2c([N+](=O)[O-])c(=O)oc3ccccc23)cc1	inactive: -30%
COc1ccccc1C(=O)NC(CCSC)C(=O)NNC(=O)c1ccc(F)cc1 (centres undefined)	inactive: -12.5%
Cc1ccccc1CN1CCN(C(=O)c2ccco2)CC1	inconclusive: 133%
Cc1ccc(C2(c3noc(CN(C)Cc4cnn(C)c4)n3)CCCC2)cc1	active: 122%
Cc1c(C)c2ccc(OCC(=O)NC(Cc3c[nH]c4ccc(O)cc34)C(=O)O)c(C)c2oc1=O (centres undefined)	inconclusive: 64.1%

Fetched by compound from the entries so far, two records:
Structure (SMILES)	activation
CC(C)(C)c1cc(C(=O)N/N=C/c2ccccn2)n[nH]1	active: 320%
COc1ccc(/C=C(/C#N)C(=O)Nc2ccc(C)cc2C)cc1C(=O)O	active: 65.5%

Source: PubChem BioAssay AID504775 (Broad Institute, 2011)
